Test results published in patent US6455761B1, “Agrobacterium-mediated transformation of turnip rape” (Helsinki University Licensing Ltd. Oy, priority 1997, dated 2002).
Some entries share one result that the patent states for a list of compounds.

Key:
explants of turnip rape = conditions: preliminary experiments
Protocol: (§1) Selection and regeneration. […] Thereafter the whole explants or cut callus pieces with the green nodules and primordia were transferred on hormone free MS medium, where nodules developed primordia and shoots. Silver nitrate in concentration 0-90 μM (0-15 mg/l) and porous paper tape for sealing of Petri dishes were used in transformation and regeneration of transgenic plants.
Shoot regeneration. Effects of different hormones on various explants of mature plants of turnip rape were tested in preliminary experiments to achieve sufficient shoot regeneration.
Silver nitrate application and aeration. The use of silver nitrate in in vitro cultivation of turnip rape has often been reported as an essential factor for shoot regeneration (Chi et al. 1990; Hachey et al. 1991; Mukhopadhuay et al. 1992; Radke et al. 1992). […] We have examined the effect of silver nitrate on regeneration capacity of explants of turnip rape.
Selection. To prevent Agrobacterium growth on the medium we used claforan (cefotaxim) 500 mg/l or carbenicillin 200 mg/l.

[1] = system: turnip rape plants cv. Valtti and Sisu; assay: Transgenic shoot regeneration under antibiotic selection; conditions: selection of transformed tissue
Protocol: as §1
Selection on kanamycin or hygromycin was applied immediately after co-cultivation of the explants with Agrobacteria, three days after beginning of the whole procedure. Antibiotics were used in concentrations 20-25 mg/l during all steps of regeneration and cultivation of transgenic plants.
Using nptII and hpt genes in transformation constructions provides the plants resistance to kanamycin and hygromycin, respectively. […] Because morfogenesis occurs mainly on the basal side of the stem segmets, explants are placed basal side down on the selection medium.
Turnip rape plants cv. Valtti and Sisu were transformed with LBA4404 pGPTV-KAN-GUSint and LBA4404 pGPTV-HPT-GUSint.
Analysis of transformation. Green regenerated shoots were checked for GUS activity. Leaves or leaf pieces were prepared for histological GUS assay as described above.

What does the source list for `NC[C@H]1O[C@H](O[C@H]2[C@H](O)[C@@H](O[C@H]3O[C@H](CO)[C@@H](O)[C@H](N)[C@H]3O)[C@H](N)C[C@@H]2N)[C@H](O)[C@@H](O)[C@@H]1O` [Kanamycin]?
concentration that prevents morfogenesis of explants (explants of turnip rape): 10 to 15 mg/L; optimal concentration for selection [1]: 20 to 25 mg/L
